Results from patent publication US20070031840.

Amino acid sequences for entries named in this document (tags omitted). A change or cut given only in a name is not applied to a line headed by its entry.
UniProt Q9UBU3: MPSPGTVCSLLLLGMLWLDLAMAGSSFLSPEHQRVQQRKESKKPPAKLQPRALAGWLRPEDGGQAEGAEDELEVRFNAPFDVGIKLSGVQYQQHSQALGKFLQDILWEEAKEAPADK

Legend:
[1] = biological target: D-octanoyl-ghrelin (all-D enantiomer) (UniProt Q9UBU3); experiment: pull-down; settings: L-RNA (all positions, Spiegelmer), 5 uM biotinylated D-ghrelin, same buffer, 37 C, enantiomer control, synthetic protein, protein details: synthetic D-peptide, octanoylated, label: 32P 5', synthetic backbone, mirror-image nucleic acid, variant of L-NOX-B11
[2] = test system: octanoyl-ghrelin (1-10) (Homo sapiens); experiment: activity in cells; settings: L-RNA (all positions, Spiegelmer); inhibition of calcium release in CHO GHS-R1a cells, 5 nM peptide; synthetic protein; synthetic backbone; mirror-image nucleic acid
[3] = test system: octanoyl-ghrelin (1-5) (Homo sapiens); experiment: activity in cells; settings: L-RNA (all positions, Spiegelmer); inhibition of calcium release in CHO GHS-R1a cells, 5 nM peptide; synthetic protein; synthetic backbone; mirror-image nucleic acid
[4] = biological target: octanoyl-ghrelin (full-length) (UniProt Q9UBU3); experiment: activity in cells; settings: L-RNA (all positions, Spiegelmer); inhibition of calcium release in CHO GHS-R1a cells, 5 nM peptide; synthetic protein; synthetic backbone; mirror-image nucleic acid
[5] = test system: desoctanoyl-ghrelin (1-5) (Homo sapiens); experiment: competition with a labelled probe; settings: L-RNA (all positions, Spiegelmer); desoctanoyl-ghrelin (1-5) does not compete; CHO GHS-R1a calcium assay; synthetic protein; synthetic backbone; mirror-image nucleic acid
[6] = biological target: desoctanoyl-ghrelin (full-length) (UniProt Q9UBU3); experiment: competition with a labelled probe; settings: L-RNA (all positions, Spiegelmer); 300 nM desoctanoyl-ghrelin (30-fold excess) does not compete for inhibition of 10 nM octanoyl-ghrelin by 30 nM L-NOX-B11; CHO GHS-R1a calcium assay; synthetic protein; protein details: synthetic L-peptide, no octanoyl group (Bachem); synthetic backbone; mirror-image nucleic acid

Sequence	binding result [1]	IC50 [2] [nM]	IC50 [3] [nM]	IC50 [4] [nM]	binding result [5]	binding result [6]
CGUGUGAGGCAAUAAAACUUAAGUCCGAAGGUAACCAAUCCUACACG [L-NOX-B11 (32P-labelled)]	no binding	–	–	–	–	–
CGUGUGAGGCAAUAAAACUUAAGUCCGAAGGUAACCAAUCCUACACG [L-NOX-B11]	–	9	5	7	no binding	no binding

For part of these data: No signal at the amounts used counts as a negative. For part of these data: The exact form of at least one protein or probe is not confirmed.
